System: HLA molecules from shock-frozen tissue samples
Assay: Identification and relative quantitation of tumor associated peptides presented on the cell surface by LC-MS (XPRESIDENT)
Design: species or system human
Conditions: all indications on which the peptide was identified at least once, independent of the HLA typing of the sample or the antibody used

| Substance | Peptide presentation on cancer types |
| --- | --- |
| 96 (HPRESLNMLVAF; listed as Homo sapiens) [compound 96] | CCC, GBC, MEL, NSCLC, PACA, UBC |
| 177 (SYLKDHLSL; listed as Homo sapiens) [compound 177] | CLL, GC, NSCLC, UBC |
| 192 (IPLHFSTAF; listed as Homo sapiens) [compound 192] | AML, BRCA, GBC, GC, HCC, HNSCC, NHL, NSCLC, OC, OSCAR, RCC, SCLC, UBC, UEC |
| 216 (ILRTVLPSL; listed as Homo sapiens) [compound 216] | AML, HCC, HNSCC, NHL, NSCLC, OC, OSCAR, RCC, UEC |
| 35 (SLATAISAK; listed as Homo sapiens) [compound 35] | CLL, NHL |
| 128 (MTFVPLLAR; listed as Homo sapiens) [compound 128] | CRC, GBC, GC, HCC, NHL, MEL, NSCLC, OC, OSCAR, PACA, UBC, UEC |
| 176 (AFLLSLISL; listed as Homo sapiens) [compound 176] | BRCA, GC, MEL, NHL, NSCLC, OSCAR, UBC |
| 44 (SLFPYFLNK; listed as Homo sapiens) [compound 44] | MEL |
| 195 (AWNESSAWLL; listed as Homo sapiens) [compound 195] | CRC, HCC |
| 73 (NQKGLISL; listed as Homo sapiens) [compound 73] | CLL, GBC, MEL, NHL, NSCLC, RCC |
| 179 (MIFSGVFLR; listed as Homo sapiens) [compound 179] | AML, BRCA, CCC, GBC, GC, HCC, HNSCC, MEL, NSCLC, OC, OSCAR, RCC, PACA, UBC, UEC |
| 170 (LLDSWNILI; listed as Homo sapiens) [compound 170] | NHL, MEL, OC, PRCA |
| 199 (RAPLPLLLL; listed as Homo sapiens) [compound 199] | GC, HNSCC, NSCLC, UBC |
| 80 (IFDLSDPRF; listed as Homo sapiens) [compound 80] | GBC, GC, HNSCC, MEL, UBC, UEC |
| 17 (MVNWSLTNK; listed as Homo sapiens) [compound 17] | HNSCC, OSCAR, UEC |
| 210 (ASRIQVILL; listed as Homo sapiens) [compound 210] | BRCA, NSCLC, PRCA, SCLC, UTC |
| 30 (SLKSSILFL; listed as Homo sapiens) [compound 30] | CCC, GC, HNSCC, NSCLC, PACA |
| 158 (FQLSGPVTF; listed as Homo sapiens) [compound 158] | BRCA, CRC, GBC, GC, NSCLC, OC, UEC |
| 46 (GESIYLLVRKW; listed as Homo sapiens) [compound 46] | CLL, NHL |
| 102 (FLLLEKGGEL; listed as Homo sapiens) [compound 102] | BRCA, CRC, HCC, HNSCC, NSCLC, PACA |
| 108 (SLQESLPNA; listed as Homo sapiens) [compound 108] | AML |
| 120 (APGPRSQGL; listed as Homo sapiens) [compound 120] | BRCA, CRC, GC, PRCA, UBC |
| 100 (SPAPSLARFLSL; listed as Homo sapiens) [compound 100] | BRCA, HNSCC, NSCLC, MEL |
| 27 (SQAKQITIW; listed as Homo sapiens) [compound 27] | AML, CCC, HCC, PACA |
| 193 (ILQLITVNR; listed as Homo sapiens) [compound 193] | BRCA, CCC, CRC, GBC, GC, HCC, HNSCC, NSCLC, OC, OSCAR, PACA, RCC, SCLC, UBC, UEC |

| Substance | Peptide presentation on cancer types |
| --- | --- |
| 52 (SPLPHLGPL; listed as Homo sapiens) [compound 52] | BRCA, CRC, GC, HCC, RCC |
| 31 (VFLLLPYPRF; listed as Homo sapiens) [compound 31] | OC, RCC |
| 185 (MPAFLSRASAL; listed as Homo sapiens) [compound 185] | BRCA, CRC, GBC, GC, HNSCC, MEL, NSCLC, OSCAR, UBC |
| 114 (VPHHLLSSV; listed as Homo sapiens) [compound 114] | GBC, GC, PACA, RCC |
| 147 (VEAPHLPSF; listed as Homo sapiens) [compound 147] | BRCA, CCC, CRC, GBC, GBM, GC, HCC, HNSCC, MEL, NHL, NSCLC, OC, OSCAR, PACA, RCC, SCLC, UBC, UEC |
| 165 (FYNPRPPLI; listed as Homo sapiens) [compound 165] | GBC |
| 59 (AVDLGVLEL; listed as Homo sapiens) [compound 59] | NHL, MEL, OC, RCC |
| 133 (KFPPSASEF; listed as Homo sapiens) [compound 133] | CRC, GC, NSCLC, PRCA, UBC |
| 187 (RLCPAAPTGK; listed as Homo sapiens) [compound 187] | BRCA, HCC, HNSCC, NSCLC, OSCAR |
| 55 (SPVSASWIL; listed as Homo sapiens) [compound 55] | MEL, UEC |
| 141 (REVAGASAL; listed as Homo sapiens) [compound 141] | NSCLC, PACA |
| 53 (TTLENLPQK; listed as Homo sapiens) [compound 53] | BRCA, GBC, NSCLC, OC, OSCAR, PACA, UEC |
| 143 (AVLGALLRH; listed as Homo sapiens) [compound 143] | BRCA, GC, GBC, HCC, NSCLC, OSCARPACA, PRCA, RCC, SCLC |
| 86 (VANDRLSFL; listed as Homo sapiens) [compound 86] | NSCLC, PRCA |
| 37 (RLYSGSSFLY; listed as Homo sapiens) [compound 37] | MEL |
| 162 (LPVHGPLPLLL; listed as Homo sapiens) [compound 162] | BRCA, CCC, CRC, GBC, GC, HCC, HNSCC, NSCLC, OC, SCLC, UEC |
| 109 (MPKLFLTAC; listed as Homo sapiens) [compound 109] | AML, CCC, CLL, CRC, GC, HCC, NSCLC, RCC |
| 3 (VYIASSFKI; listed as Homo sapiens) [compound 3] | HCC, NSCLC |
| 208 (YVGPTRLEL; listed as Homo sapiens) [compound 208] | BRCA, CLL, GBM, MEL, NSCLC |
| 7 (IYIPTNSIYKF; listed as Homo sapiens) [compound 7] | HCC, PRCA |
| 101 (ATNSFLLIK; listed as Homo sapiens) [compound 101] | GC, NSCLC, SCLC, PACA, PRCA |
| 5 (METADRPEW; listed as Homo sapiens) [compound 5] | BRCA, PRCA |
| 32 (TAMTTLMAF; listed as Homo sapiens) [compound 32] | HNSCC, MEL, OSCAR, PACA, UEC |
| 169 (RPQGVGPAA; listed as Homo sapiens) [compound 169] | BRCA, GC, GBC, HNSCC, MEL, NSCLC, RCC, UBC |
| 107 (SVISVLTTPK; listed as Homo sapiens) [compound 107] | GBC, NSCLC, OSCAR, UBC, UEC |

| Substance | Peptide presentation on cancer types |
| --- | --- |
| 71 (LIDSLLLLL; listed as Homo sapiens) [compound 71] | MEL, NHL, OC |
| 90 (LALLGAPPPK; listed as Homo sapiens) [compound 90] | AML, CCC, CRC, GBC, GC, HCC, HNSCC, NSCLC, OC, OSCAR, PACA, PRCA, RCC, SCLC, UEC |
| 47 (LYIFTTRPF; listed as Homo sapiens) [compound 47] | MEL, NSCLC |
| 118 (RLLRLIPIL; listed as Homo sapiens) [compound 118] | GBC, HNSCC, MEL, NSCLC, OC, PACA, RCC |
| 161 (ILAASFQAR; listed as Homo sapiens) [compound 161] | CRC, GBM, HCC, HNSCC, RCC, UBC |
| 38 (AVVSHFILY; listed as Homo sapiens) [compound 38] | AML, GBC, MEL |
| 138 (RTLPLEGSPK; listed as Homo sapiens) [compound 138] | BRCA, CCC, GBM, NSCLC, PACA, PRCA, UEC |
| 164 (SHSSPTVSF; listed as Homo sapiens) [compound 164] | GC, PRCA, RCC |
| 77 (YPDVPIGQL; listed as Homo sapiens) [compound 77] | CRC |
| 207 (LPALLRSL; listed as Homo sapiens) [compound 207] | BRCA, CLL, CRC, NSCLC |
| 197 (HHTQLVFVF; listed as Homo sapiens) [compound 197] | NHL, NSCLC, OC, UBC |
| 69 (KYPTIICGF; listed as Homo sapiens) [compound 69] | CRC, GBC |
| 81 (KLIAGLIFLK; listed as Homo sapiens) [compound 81] | AML, NHL, OC, RCC, UBC, UEC |
| 83 (EAAPNIMHY; listed as Homo sapiens) [compound 83] | PRCA |
| 8 (VIYNQTLMK; listed as Homo sapiens) [compound 8] | CCC, HCC |
| 155 (MPWVLMSPF; listed as Homo sapiens) [compound 155] | AML, CRC, NHL, NSCLC, OC, SCLC |
| 154 (TVTSAIVNR; listed as Homo sapiens) [compound 154] | CRC, GBC, GC, PACA, PRCA, SCLC, UBC |
| 33 (AYIPFPPLI; listed as Homo sapiens) [compound 33] | HCC, PRCA |
| 92 (LNFSDVFLY; listed as Homo sapiens) [compound 92] | GC, HNSCC, MEL, NHL, NSCLC, PRCA |
| 22 (RVIEVVMNSK; listed as Homo sapiens) [compound 22] | GBM, HCC, HNSCC, MEL |
| 183 (VFVISGSHLF; listed as Homo sapiens) [compound 183] | NHL, NSCLC, UBC, UEC |
| 78 (TPSHSTPSF; listed as Homo sapiens) [compound 78] | GC, PACA |
| 159 (ASAIPAGAK; listed as Homo sapiens) [compound 159] | CRC, HNSCC, OC, RCC |

— patent US11957716B2 (Immatics Biotechnologies GmbH, priority 2021, dated 2024)
